According to the supplement of paper PMC4604168 (melanoma cell lines):
Some of the results follow. Single values are uncertain, as repeats are few or missing.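 The apoptosis fraction was the count of cleaved-PARP antibody-stained nuclei relative to all DNA-stained nuclei, imaged in 1,536-well plates. Screening doses were set so most cells survived, and baseline and induced cleaved-PARP levels vary greatly across cell lines.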

Key:
Experiment in all cases: cleaved PARP positive nuclei fraction relative to DMSO control; melanoma cells; higher = more apoptosis
Conditions in all cases: library dose: low library concentration; 72 h
MZ2-MEL = system: MZ2-MEL
MeWo = system: MeWo
RPMI7951 = system: RPMI7951
RVH-421 = system: RVH-421
SkMel28 = system: SkMel28
SkMel2 = system: SkMel2
SkMel30 = system: SkMel30
UACC62 = system: UACC62

Row | Structure (SMILES) | cleaved PARP positive nuclei fraction (MZ2-MEL) [%] | cleaved PARP positive nuclei fraction (MeWo) [%] | cleaved PARP positive nuclei fraction (RPMI7951) [%] | cleaved PARP positive nuclei fraction (RVH-421) [%] | cleaved PARP positive nuclei fraction (SkMel28) [%] | cleaved PARP positive nuclei fraction (SkMel2) [%] | cleaved PARP positive nuclei fraction (SkMel30) [%] | cleaved PARP positive nuclei fraction (UACC62) [%]
1 | O=C(O)c1ccc2c(c1)nc(Nc1cccc(Cl)c1)c1ccncc12 + C[As](C)SC[C@H](NC(=O)CC[C@H](N)C(=O)O)C(=O)NCC(=O)O [Darinaparsin] (first compound 0.4 µM, partner dose 0.4 µM) | 235 | 177 | 133 | 123 | 39.2 | 125 | 87.8 | 131
2 | CS(=O)(=O)c1ccc(C(=O)Nc2ccc(Cl)c(-c3ccccn3)c2)c(Cl)c1 [vismodegib] + N.N.[Cl][Pt][Cl] [cisplatin] (first compound 1 µM, partner dose 1.6 µM) | 70.4 | 181 | 63.1 | 210 | 91.8 | 65.3 | 43.9 | 45.4
3 | N#CC[C@H](C1CCCC1)n1cc(-c2ncnc3[nH]ccc23)cn1 [ruxolitinib] + N.N.[Cl][Pt][Cl] [cisplatin] (first compound 1 µM, partner dose 1.6 µM) | 137 | 143 | 187 | 151 | 76.3 | 89.9 | 66.1 | 40.9
4 | N#CC[C@H](C1CCCC1)n1cc(-c2ncnc3[nH]ccc23)cn1 [ruxolitinib] + C[As](C)SC[C@H](NC(=O)CC[C@H](N)C(=O)O)C(=O)NCC(=O)O [Darinaparsin] (first compound 1 µM, partner dose 0.4 µM) | 95.5 | 163 | 35.8 | 227 | 36.2 | 240 | 63.6 | 49.7
5 | C[C@@H](N)c1ccc(C(=O)Nc2ccnc3[nH]ccc23)cc1 + Cn1cc(C2=C(c3cn(C4CCN(Cc5ccccn5)CC4)c4ccccc34)C(=O)NC2=O)c2ccccc21 [Enzastaurin] (first compound 0.4 µM, partner dose 0.8 µM) | 225 | 81.2 | 110 | 166 | 45.9 | 88.5 | 18.1 | 270
6 | Cc1cn(-c2cc(NC(=O)c3ccc(C)c(Nc4nccc(-c5cccnc5)n4)c3)cc(C(F)(F)F)c2)cn1 [nilotinib] + N.N.[Cl][Pt][Cl] [cisplatin] (first compound 0.2 µM, partner dose 1.6 µM) | 66.9 | 176 | 39.7 | 62.4 | 49.6 | 35.5 | 31.4 | 102
7 | C[C@@H](N)c1ccc(C(=O)Nc2ccnc3[nH]ccc23)cc1 + C[As](C)SC[C@H](NC(=O)CC[C@H](N)C(=O)O)C(=O)NCC(=O)O [Darinaparsin] (first compound 0.4 µM, partner dose 0.4 µM) | 152 | 299 | 92.6 | 216 | 110 | 125 | 192 | 296
8 | O=C(O)[C@@H]1[O][Sb](=[O])([O][Sb]2(=[O])[O][C@H]([C@H](O)CO)[C@H](O)[C@H](C(=O)O)[O]2)[O][C@H]([C@H](O)CO)[C@@H]1O (some centres not stated) [stibogluconate] + C[As](C)SC[C@H](NC(=O)CC[C@H](N)C(=O)O)C(=O)NCC(=O)O [Darinaparsin] (first compound 2 µM, partner dose 0.4 µM) | 42.4 | 202 | 50.8 | 104 | 171 | 93.6 | 150 | 36.5
9 | Cn1cc(C2=C(c3cn(C4CCN(Cc5ccccn5)CC4)c4ccccc34)C(=O)NC2=O)c2ccccc21 [Enzastaurin] + C[C@]1(O)C[C@@H](c2nc(-c3ccc4ccc(-c5ccccc5)nc4c3)c3c(N)nccn32)C1 [OSI906] (first compound 0.8 µM, partner dose 0.4 µM) | 29.5 | 149 | 100 | 186 | 78.9 | 89.1 | 32.7 | 219
10 | Nc1nc(F)nc2c1ncn2[C@@H]1O[C@H](CO)[C@@H](O)[C@@H]1O [fludarabine] + C[As](C)SC[C@H](NC(=O)CC[C@H](N)C(=O)O)C(=O)NCC(=O)O [Darinaparsin] (first compound 0.2 µM, partner dose 0.4 µM) | 58.4 | 746 | 390 | 86.8 | 58.6 | 242 | 1550 | 19.4
11 | N.N.[Cl][Pt][Cl] [cisplatin] + Nc1nc(F)nc2c1ncn2[C@@H]1O[C@H](CO)[C@@H](O)[C@@H]1O [fludarabine] (first compound 1.6 µM, partner dose 0.2 µM) | 118 | 473 | 46.1 | 71 | 93.8 | 335 | 573 | 68.4
12 | N.N.[Cl][Pt][Cl] [cisplatin] + Clc1ccc(Nc2nnc(Cc3ccncc3)c3ccccc23)cc1 [vatalanib] (first compound 1.6 µM, partner dose 2 µM) | 39.2 | 248 | 128 | 54.1 | 44.8 | 627 | 120 | 227
13 | CCCCCCCCc1ccc(CCC(N)(CO)CO)cc1 [fingolimod] + N.N.[Cl][Pt][Cl] [cisplatin] (first compound 2 µM, partner dose 1.6 µM) | 96.9 | 65.1 | 224 | 269 | 88.3 | 83.3 | 45.9 | 36.5
14 | CCN(CC)CCNC(=O)c1c(C)[nH]c(/C=C2\C(=O)Nc3ccc(F)cc32)c1C [sunitinib] + N.N.[Cl][Pt][Cl] [cisplatin] (first compound 0.4 µM, partner dose 1.6 µM) | 34.8 | 107 | 108 | 72.3 | 155 | 45.8 | 93.5 | 237
15 | NC1(c2ccc(-c3nc4ccn5c(=O)[nH]nc5c4cc3-c3ccccc3)cc2)CCC1 + N.N.[Cl][Pt][Cl] [cisplatin] (first compound 0.4 µM, partner dose 1.6 µM) | 172 | 220 | 105 | 332 | 227 | 128 | 74.8 | 255
16 | N.N.[Cl][Pt][Cl] [cisplatin] + CCCS(=O)(=O)Nc1ccc(F)c(C(=O)c2c[nH]c3ncc(Cl)cc23)c1F [PLX4720] (first compound 1.6 µM, partner dose 0.08 µM) | 135 | 52.8 | 158 | 102 | 66.3 | 125 | 17.8 | 122
17 | CCCCCCCCCCCCCCCCCCOP(=O)([O-])OC1CC[N+](C)(C)CC1 [Perifosine] + Cn1cc(C2=C(c3cn(C4CCN(Cc5ccccn5)CC4)c4ccccc34)C(=O)NC2=O)c2ccccc21 [Enzastaurin] (first compound 0.4 µM, partner dose 0.8 µM) | 92.8 | 119 | 121 | 175 | 97.8 | 60 | 115 | 123
18 | COc1ccc(C2=N[C@@H](c3ccc(Cl)cc3)[C@@H](c3ccc(Cl)cc3)N2C(=O)N2CCNC(=O)C2)c(OC(C)C)c1 [Nutlin-3] + C[As](C)SC[C@H](NC(=O)CC[C@H](N)C(=O)O)C(=O)NCC(=O)O [Darinaparsin] (first compound 0.1 µM, partner dose 0.4 µM) | 60.5 | 379 | 139 | 177 | 49.3 | 45.4 | 167 | 112
19 | CCCCCCCCc1ccc(CCC(N)(CO)CO)cc1 [fingolimod] + C[As](C)SC[C@H](NC(=O)CC[C@H](N)C(=O)O)C(=O)NCC(=O)O [Darinaparsin] (first compound 2 µM, partner dose 0.4 µM) | 107 | 132 | 118 | 70 | 94.8 | 70.1 | 134 | 129
20 | CC1(C)CCC(c2ccc(Cl)cc2)=C(CN2CCN(c3ccc(C(=O)NS(=O)(=O)c4ccc(N[C@H](CCN5CCOCC5)CSc5ccccc5)c(S(=O)(=O)C(F)(F)F)c4)cc3)CC2)C1 + Cn1cc(C2=C(c3cn(C4CCN(Cc5ccccn5)CC4)c4ccccc34)C(=O)NC2=O)c2ccccc21 [Enzastaurin] (first compound 0.4 µM, partner dose 0.8 µM) | 245 | 187 | 158 | 97.9 | 74.6 | 136 | 172 | 37.5
21 | Cn1cc(C2=C(c3cn(C4CCN(Cc5ccccn5)CC4)c4ccccc34)C(=O)NC2=O)c2ccccc21 [Enzastaurin] + Nc1cccc2c1CN(C1CCC(=O)NC1=O)C2=O [lenalidomide] (first compound 0.8 µM, partner dose 1 µM) | 135 | 32.3 | 100 | 23.8 | 78.5 | 115 | 22 | 55.2
22 | O=c1[nH]nc(Sc2ncc([N+](=O)[O-])s2)n1-c1ccc2c(c1)OCCO2 + Cn1cc(C2=C(c3cn(C4CCN(Cc5ccccn5)CC4)c4ccccc34)C(=O)NC2=O)c2ccccc21 [Enzastaurin] (first compound 0.2 µM, partner dose 0.8 µM) | 55.6 | 105 | 47.7 | 78.2 | 78.5 | 123 | 158 | 57.9
23 | C[As](C)SC[C@H](NC(=O)CC[C@H](N)C(=O)O)C(=O)NCC(=O)O [Darinaparsin] + C[C@]1(c2nc3c(C(N)=O)cccc3[nH]2)CCCN1 [Veliparib] (first compound 0.4 µM, partner dose 1.4 µM) | 80.3 | 171 | 201 | 141 | 137 | 134 | 184 | 159
24 | CC(C)C[C@H](NC(=O)[C@H](Cc1ccccc1)NC(=O)c1cnccn1)B(O)O [Bortezomib] + C[As](C)SC[C@H](NC(=O)CC[C@H](N)C(=O)O)C(=O)NCC(=O)O [Darinaparsin] (first compound 0.001 µM, partner dose 0.4 µM) | 97.7 | 185 | 60.5 | 245 | 68.7 | 152 | 99.2 | 92.5

Reprinted at random: 2 records from the list.
Row | Structure (SMILES) | cleaved PARP positive nuclei fraction (MZ2-MEL) [%] | cleaved PARP positive nuclei fraction (MeWo) [%] | cleaved PARP positive nuclei fraction (RPMI7951) [%] | cleaved PARP positive nuclei fraction (RVH-421) [%] | cleaved PARP positive nuclei fraction (SkMel28) [%] | cleaved PARP positive nuclei fraction (SkMel2) [%] | cleaved PARP positive nuclei fraction (SkMel30) [%] | cleaved PARP positive nuclei fraction (UACC62) [%]
1 | O=C(O)c1ccc2c(c1)nc(Nc1cccc(Cl)c1)c1ccncc12 + C[As](C)SC[C@H](NC(=O)CC[C@H](N)C(=O)O)C(=O)NCC(=O)O [Darinaparsin] (first compound 0.4 µM, partner dose 0.4 µM) | 235 | 177 | 133 | 123 | 39.2 | 125 | 87.8 | 131
9 | Cn1cc(C2=C(c3cn(C4CCN(Cc5ccccn5)CC4)c4ccccc34)C(=O)NC2=O)c2ccccc21 [Enzastaurin] + C[C@]1(O)C[C@@H](c2nc(-c3ccc4ccc(-c5ccccc5)nc4c3)c3c(N)nccn32)C1 [OSI906] (first compound 0.8 µM, partner dose 0.4 µM) | 29.5 | 149 | 100 | 186 | 78.9 | 89.1 | 32.7 | 219
